Results are given in words; binding and its absence hold for the method and conditions named. Some binding calls cover weakened binding; strength is not graded here.

The assay has as its target Cyno TIGIT-Fc (cynomolgus). Put plainly: SPR Biacore T200. For orientation: Surface plasmon resonance follows binding to a sensor surface in real time, without labels.

B1: humanized anti-TIGIT monoclonal antibody hu20 (antibody, human IgG4 S228P, kappa, V domains shown)
VH: QVQLVQSGAEVKKPGASVKVSCKTSGYAFTEYTMHWVRQAPGKGLEWMGGINPNTGGTTYNQKFQGRVTLTVDKSSSTAYMELSSLRSEDTVVYYCAKLLRLMYYFDYWGQGTLVTVSS
VL: DIQMTQSPSSLSASVGDRVTITCQASQDVRTAVAWYQQKPGKAPKLLIYSASYRYTGVPSRFSGSGSGTDFTFTISSLQPEDIATYYCHQHYITPWTFGGGTKVEIKR
As for B1, the binding result was “binds”.

B2: humanized anti-TIGIT antibody hu3 (antibody, human IgG4 S228P, kappa, V domains shown)
VH: QVQLVQSGAEVKKPGASVKVSCKTSGYAFTEYTMHWVRQAPGQGLEWMGGINPNTGGTTYNQKFQGRVTLTVDKSSSTAYMELSRLRSDDTVVYYCAKLLRLMYYFDYWGQGTLVTVSS
VL: DIVMTQSPDSLAVSLGERATINCKASQDVRTAVAWYQQKPGQPPKLLIYSASYRYTGVPDRFSGSGSGTDFTLTISSLQAEDVAVYYCHQHYITPWTFGGGTKVEIKR
With B2, the binding entry is reported as “binds”.

(Values after patent US20240067720A1 (SHANGHAI JUNSHI BIOSCIENCES, published 2024).)
